This is one part of the list. Repeats are few or missing, and single values can be far off.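 Imaging used 1,536-well plates; nuclei positive for cleaved PARP by antibody were divided by total DNA-stained nuclei to yield the apoptosis fraction. Doses for screening kept most cells viable, and cell lines differ markedly in resting and induced cleaved-PARP levels.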
tested on: IST-MEL1; assay: cleaved PARP positive nuclei fraction relative to DMSO control; melanoma cells; higher = more apoptosis; conditions: library dose: low library concentration; 72 h

SMILES	cleaved PARP positive nuclei fraction [%]
N#CC[C@H](C1CCCC1)n1cc(-c2ncnc3[nH]ccc23)cn1 [ruxolitinib] + N#Cc1c(O)c2c(-c3ccc(-c4ccccc4O)cc3)csc2[nH]c1=O [A769662] (first compound 1 µM, partner dose 2 µM)	133
COc1cc([C@@H]2c3cc4c(cc3[C@@H](O[C@@H]3O[C@@H]5CO[C@@H](C)O[C@H]5[C@H](O)[C@H]3O)[C@H]3COC(=O)[C@H]23)OCO4)cc(OC)c1O [etoposide] + O=C1NC(=O)/C(=C/c2ccc(-c3ccc(F)cc3O)o2)S1 [AS252424] (first compound 0.02 µM, partner dose 1 µM)	40.3
COc1cc([C@@H]2c3cc4c(cc3[C@@H](O[C@@H]3O[C@@H]5CO[C@@H](C)O[C@H]5[C@H](O)[C@H]3O)[C@H]3COC(=O)[C@H]23)OCO4)cc(OC)c1O [etoposide] + CC(C)CCN1c2nc(Nc3cc(F)c(O)c(F)c3)ncc2N(C)C(=O)C1C [BID1870] (first compound 0.02 µM, partner dose 0.2 µM)	63.3
Cc1ccc(Nc2nccc(N(C)c3ccc4c(C)n(C)nc4c3)n2)cc1S(N)(=O)=O [Pazopanib] + CCN(CC)CCCCNc1ncc2cc(-c3cc(OC)cc(OC)c3)c(NC(=O)NC(C)(C)C)nc2n1 [PD173074] (first compound 0.4 µM, partner dose 0.1 µM)	232
Cc1cn(-c2cc(NC(=O)c3ccc(C)c(Nc4nccc(-c5cccnc5)n4)c3)cc(C(F)(F)F)c2)cn1 [nilotinib] + COc1ccc2c(c1)CCC1C2CCC2(C)C(NCCCCCCN3C(=O)C=CC3=O)CCC12 [U73122] (first compound 0.2 µM, partner dose 0.4 µM)	168
N#CC[C@H](C1CCCC1)n1cc(-c2ncnc3[nH]ccc23)cn1 [ruxolitinib] + COc1ccc2c(c1)CCC1C2CCC2(C)C(NCCCCCCN3C(=O)C=CC3=O)CCC12 [U73122] (first compound 1 µM, partner dose 0.4 µM)	126
CCCCCCCCCCCCCCCCCCOP(=O)([O-])OC1CC[N+](C)(C)CC1 [Perifosine] + O=C(O)C(=O)Nc1sc2c(c1C(=O)O)CCNC2 [TCS401] (first compound 0.4 µM, partner dose 1.66667 µM)	40
Cc1cn(-c2cc(NC(=O)c3ccc(C)c(Nc4nccc(-c5cccnc5)n4)c3)cc(C(F)(F)F)c2)cn1 [nilotinib] + COc1cc(N2CCC(N3CCN(C)CC3)CC2)ccc1Nc1ncc(Cl)c(Nc2ccccc2S(=O)(=O)C(C)C)n1 [NVP-TAE684] (first compound 0.2 µM, partner dose 0.08 µM)	37.2
Cc1ccc(Nc2nccc(N(C)c3ccc4c(C)n(C)nc4c3)n2)cc1S(N)(=O)=O [Pazopanib] + O=C(Nc1ccccc1)c1cc([N+](=O)[O-])ccc1Cl [GW9662] (first compound 0.4 µM, partner dose 2 µM)	67.4
O=C(Nc1cc(C(F)(F)F)cc(C(F)(F)F)c1)c1cc(Cl)ccc1O + O=C(O)C(=O)Nc1sc2c(c1C(=O)O)CCNC2 [TCS401] (first compound 0.016 µM, partner dose 1.66667 µM)	76.6

tested on: LB2518-MEL; assay: as above; conditions: library dose: low library concentration; 72 h

SMILES	cleaved PARP positive nuclei fraction [%]
Cc1cc(Nc2cc(N3CCN(C)CC3)nc(Sc3ccc(NC(=O)C4CC4)cc3)n2)n[nH]1 [Tozasertib] + N#Cc1c(O)c2c(-c3ccc(-c4ccccc4O)cc3)csc2[nH]c1=O [A769662] (first compound 0.006 µM, partner dose 2 µM)	80.3
O=C(Nc1cc(C(F)(F)F)cc(C(F)(F)F)c1)c1cc(Cl)ccc1O + COc1ccc(COc2ccc(Cc3cnc(N)nc3N)cc2OC)cc1 [GW2580] (first compound 0.016 µM, partner dose 1 µM)	76.3
O=C(/C=C/c1cccnc1)NCCCCC1CCN(C(=O)c2ccccc2)CC1 + COc1cc(N2CCC(N3CCN(C)CC3)CC2)ccc1Nc1ncc(Cl)c(Nc2ccccc2S(=O)(=O)C(C)C)n1 [NVP-TAE684] (first compound 0.01 µM, partner dose 0.08 µM)	317
N#CC[C@H](C1CCCC1)n1cc(-c2ncnc3[nH]ccc23)cn1 [ruxolitinib] + Cn1cc(/C=C2\C(=O)Nc3cccnc32)c2ccccc21 [GW441756] (first compound 1 µM, partner dose 0.4 µM)	55.6
CCCCCCCCCCCCCCCCCCOP(=O)([O-])OC1CC[N+](C)(C)CC1 [Perifosine] + Oc1nc(-c2ccc(C(F)(F)F)cc2)nc2c1CSCC2 [XAV939] (first compound 0.4 µM, partner dose 2 µM)	68.5
O=C(/C=C/c1cccnc1)NCCCCC1CCN(C(=O)c2ccccc2)CC1 + Oc1nc(-c2ccc(C(F)(F)F)cc2)nc2c1CSCC2 [XAV939] (first compound 0.01 µM, partner dose 2 µM)	48.7
Cc1ccc(Nc2nccc(N(C)c3ccc4c(C)n(C)nc4c3)n2)cc1S(N)(=O)=O [Pazopanib] + N#Cc1c(O)c2c(-c3ccc(-c4ccccc4O)cc3)csc2[nH]c1=O [A769662] (first compound 0.4 µM, partner dose 2 µM)	45.8
N#CC[C@H](C1CCCC1)n1cc(-c2ncnc3[nH]ccc23)cn1 [ruxolitinib] + COc1cc2ncnc(Nc3ccc(Oc4ccccc4)cc3)c2cc1OC [SrcI1] (first compound 1 µM, partner dose 2 µM)	35
O=C(Nc1cc(C(F)(F)F)cc(C(F)(F)F)c1)c1cc(Cl)ccc1O + CCN(CC)CCCCNc1ncc2cc(-c3cc(OC)cc(OC)c3)c(NC(=O)NC(C)(C)C)nc2n1 [PD173074] (first compound 0.016 µM, partner dose 0.1 µM)	185
CCCCCCCCCCCCCCCCCCOP(=O)([O-])OC1CC[N+](C)(C)CC1 [Perifosine] + COc1ccc2c(c1)CCC1C2CCC2(C)C(NCCCCCCN3C(=O)C=CC3=O)CCC12 [U73122] (first compound 0.4 µM, partner dose 0.4 µM)	69.2
O=c1[nH]nc(Sc2ncc([N+](=O)[O-])s2)n1-c1ccc2c(c1)OCCO2 + N#Cc1c(O)c2c(-c3ccc(-c4ccccc4O)cc3)csc2[nH]c1=O [A769662] (first compound 0.2 µM, partner dose 2 µM)	70.4
O=c1[nH]nc(Sc2ncc([N+](=O)[O-])s2)n1-c1ccc2c(c1)OCCO2 + COc1ccc2c(c1)CCC1C2CCC2(C)C(NCCCCCCN3C(=O)C=CC3=O)CCC12 [U73122] (first compound 0.2 µM, partner dose 0.4 µM)	202
N#CC[C@H](C1CCCC1)n1cc(-c2ncnc3[nH]ccc23)cn1 [ruxolitinib] + O=C(Nc1ccccc1)c1cc([N+](=O)[O-])ccc1Cl [GW9662] (first compound 1 µM, partner dose 2 µM)	60.4
O=C(/C=C/c1cccnc1)NCCCCC1CCN(C(=O)c2ccccc2)CC1 + O=c1cc(-c2cccc3c2Sc2ccccc2S3)oc(N2CCOCC2)c1 [KU55933] (first compound 0.01 µM, partner dose 1 µM)	220
CCCCCCCCCCCCCCCCCCOP(=O)([O-])OC1CC[N+](C)(C)CC1 [Perifosine] + Cc1cc([N+](=O)[O-])ccc1NS(=O)(=O)c1cc(Cl)ccc1Cl [FH535] (first compound 0.4 µM, partner dose 1 µM)	145
N#CC[C@H](C1CCCC1)n1cc(-c2ncnc3[nH]ccc23)cn1 [ruxolitinib] + O=S(=O)(c1ccccc1)N(CC(F)(F)F)c1ccc(C(O)(C(F)(F)F)C(F)(F)F)cc1 [T0901317] (first compound 1 µM, partner dose 1.4 µM)	125
Cc1cn(-c2cc(NC(=O)c3ccc(C)c(Nc4nccc(-c5cccnc5)n4)c3)cc(C(F)(F)F)c2)cn1 [nilotinib] + COC(=O)c1sccc1S(=O)(=O)Nc1ccc(Nc2ccccc2)cc1OC [GSK0660] (first compound 0.2 µM, partner dose 1 µM)	67
Cc1ccc(Nc2nccc(N(C)c3ccc4c(C)n(C)nc4c3)n2)cc1S(N)(=O)=O [Pazopanib] + O=C(O)C(=O)Nc1sc2c(c1C(=O)O)CCNC2 [TCS401] (first compound 0.4 µM, partner dose 1.66667 µM)	69.7
N#CC[C@H](C1CCCC1)n1cc(-c2ncnc3[nH]ccc23)cn1 [ruxolitinib] + COc1ccc(COc2ccc(Cc3cnc(N)nc3N)cc2OC)cc1 [GW2580] (first compound 1 µM, partner dose 1 µM)	55.7
Cc1ccc(Nc2nccc(N(C)c3ccc4c(C)n(C)nc4c3)n2)cc1S(N)(=O)=O [Pazopanib] + CCc1ccc(CCOc2ccc(CC3SC(=O)NC3=O)cc2)nc1 [pioglitazone] (first compound 0.4 µM, partner dose 2 µM)	63.9
Cc1cc(Nc2cc(N3CCN(C)CC3)nc(Sc3ccc(NC(=O)C4CC4)cc3)n2)n[nH]1 [Tozasertib] + c1cc(-c2cnn3cc(-c4ccc(OCCN5CCCCC5)cc4)cnc23)ccn1 [Dorsomorphin] (first compound 0.006 µM, partner dose 0.4 µM)	167
Cc1ccc(Nc2nccc(N(C)c3ccc4c(C)n(C)nc4c3)n2)cc1S(N)(=O)=O [Pazopanib] + COC(=O)c1sccc1S(=O)(=O)Nc1ccc(Nc2ccccc2)cc1OC [GSK0660] (first compound 0.4 µM, partner dose 1 µM)	71.3

Part of the list above in a different format.
SMILES,cleaved PARP positive nuclei fraction [%]
"Cc1cc(Nc2cc(N3CCN(C)CC3)nc(Sc3ccc(NC(=O)C4CC4)cc3)n2)n[nH]1 [Tozasertib] + N#Cc1c(O)c2c(-c3ccc(-c4ccccc4O)cc3)csc2[nH]c1=O [A769662] (first compound 0.006 µM, partner dose 2 µM)",80.3
"N#CC[C@H](C1CCCC1)n1cc(-c2ncnc3[nH]ccc23)cn1 [ruxolitinib] + Cn1cc(/C=C2\C(=O)Nc3cccnc32)c2ccccc21 [GW441756] (first compound 1 µM, partner dose 0.4 µM)",55.6
"CCCCCCCCCCCCCCCCCCOP(=O)([O-])OC1CC[N+](C)(C)CC1 [Perifosine] + Oc1nc(-c2ccc(C(F)(F)F)cc2)nc2c1CSCC2 [XAV939] (first compound 0.4 µM, partner dose 2 µM)",68.5
"O=C(/C=C/c1cccnc1)NCCCCC1CCN(C(=O)c2ccccc2)CC1 + Oc1nc(-c2ccc(C(F)(F)F)cc2)nc2c1CSCC2 [XAV939] (first compound 0.01 µM, partner dose 2 µM)",48.7
"O=C(Nc1cc(C(F)(F)F)cc(C(F)(F)F)c1)c1cc(Cl)ccc1O + CCN(CC)CCCCNc1ncc2cc(-c3cc(OC)cc(OC)c3)c(NC(=O)NC(C)(C)C)nc2n1 [PD173074] (first compound 0.016 µM, partner dose 0.1 µM)",185
"CCCCCCCCCCCCCCCCCCOP(=O)([O-])OC1CC[N+](C)(C)CC1 [Perifosine] + COc1ccc2c(c1)CCC1C2CCC2(C)C(NCCCCCCN3C(=O)C=CC3=O)CCC12 [U73122] (first compound 0.4 µM, partner dose 0.4 µM)",69.2
"O=C(/C=C/c1cccnc1)NCCCCC1CCN(C(=O)c2ccccc2)CC1 + O=c1cc(-c2cccc3c2Sc2ccccc2S3)oc(N2CCOCC2)c1 [KU55933] (first compound 0.01 µM, partner dose 1 µM)",220
"Cc1cn(-c2cc(NC(=O)c3ccc(C)c(Nc4nccc(-c5cccnc5)n4)c3)cc(C(F)(F)F)c2)cn1 [nilotinib] + COC(=O)c1sccc1S(=O)(=O)Nc1ccc(Nc2ccccc2)cc1OC [GSK0660] (first compound 0.2 µM, partner dose 1 µM)",67
"Cc1ccc(Nc2nccc(N(C)c3ccc4c(C)n(C)nc4c3)n2)cc1S(N)(=O)=O [Pazopanib] + O=C(O)C(=O)Nc1sc2c(c1C(=O)O)CCNC2 [TCS401] (first compound 0.4 µM, partner dose 1.66667 µM)",69.7
"N#CC[C@H](C1CCCC1)n1cc(-c2ncnc3[nH]ccc23)cn1 [ruxolitinib] + COc1ccc(COc2ccc(Cc3cnc(N)nc3N)cc2OC)cc1 [GW2580] (first compound 1 µM, partner dose 1 µM)",55.7
